From patent US20260258116A1
Results are given in words; binding and its absence hold for the method and conditions named. Some results given as binding are weak or reduced against the parent protein; the word gives no strength.

Biological target: T1, Recombinant human HMGB1 (rHMGB1) (human), P09429
T1 chain: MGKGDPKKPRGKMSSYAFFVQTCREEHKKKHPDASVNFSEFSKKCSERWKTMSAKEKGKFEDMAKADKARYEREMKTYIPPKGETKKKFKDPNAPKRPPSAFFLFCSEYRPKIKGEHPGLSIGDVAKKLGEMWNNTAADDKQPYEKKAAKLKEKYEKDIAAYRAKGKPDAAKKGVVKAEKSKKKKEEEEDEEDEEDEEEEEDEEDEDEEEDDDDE
Test: Sulfo-SBED label transfer, immunoblot
Details: remark: other sources report otherwise

B1: Recombinant human HMGB1 (rHMGB1), P09429 1-215 (protein)
chain: T1 chain
  binding: binds
